Data taken from US11442059B2, “Method for treating a chronic itch condition by administering small molecule MrgprX4 antagonists” (The Johns Hopkins University, priority 2017, dated 2022).
These are yes or no findings as the source states them, for the method shown. Some entries that bind do so weakly or less than the wild type.

Molecular target: T1, C11 (mouse) (UniProt Q8CIP3)
T1 sequence (receptor, looked up): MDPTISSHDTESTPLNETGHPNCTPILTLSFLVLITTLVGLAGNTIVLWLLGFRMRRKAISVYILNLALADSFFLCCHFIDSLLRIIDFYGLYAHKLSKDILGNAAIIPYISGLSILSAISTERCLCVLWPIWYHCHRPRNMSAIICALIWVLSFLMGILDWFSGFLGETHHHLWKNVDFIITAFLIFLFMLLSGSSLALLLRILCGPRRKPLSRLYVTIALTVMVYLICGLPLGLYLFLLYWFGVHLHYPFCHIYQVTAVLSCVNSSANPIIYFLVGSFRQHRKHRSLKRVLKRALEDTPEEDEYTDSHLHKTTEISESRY
Experiment: microscale thermophoresis binding isotherm (T-Jump), GFP-tagged MRGPRC11 membrane fraction, mean of 3 experiments [panel n]

- binding: binds
B1: BAM8-22 (peptide)
peptide: VGRPEWWMDYQKRYG
